Results of single-concentration screens

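Whole-parasite assay of Trypanosoma brucei over 72 hours; the read-out is not stated. Compounds at 30 µM. Direction is inferred from retests: higher values go with stronger inhibition. Values scatter widely below zero; nearly all retest evidence comes from the higher of the two concentrations used. About 64,000 compounds were tested under these conditions; 1.5% (about 940) showed 50% or more at least once.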

Each number is a percent effect as filed.
How 0% and 100% were set is not recorded. Most values in the screen are low, and negative values occur.
The compounds are a random part of those screened.

structure	effect
COCCN1CCCC(c2nc(C)n3c(C)c(C)sc23)C1 (centres unmarked)	-27.06
Cc1ccccc1CN(CC(=O)O)C(=O)COCC1CC1	-60.54
Cc1nsc(NCCNS(=O)(=O)c2cccc(Cl)c2)n1	10.38
COc1ccc(OCc2nc(C(=O)NCCN3CCOCC3)co2)cc1	-7.199
Cc1nc2cc(-c3nccn3C)nn2c(N2CCCC(CO)C2)c1C (centres unmarked)	21.68
O=C(Nc1cccc(C(F)F)c1)N[C@@H]1C=C[C@H](CO)C1	-27.14
CCOc1ccccc1NC(=O)NCC(C)(O)CCSC (centres unmarked)	12.35
Cc1nnc(SCCNC(=O)c2cc(S(N)(=O)=O)ccc2F)s1	-24.59
COCCCNC(=O)CN(C)Cc1ccc(F)cc1Cl	-34.4
Cc1ccc(NCc2cc(C#N)ccc2F)cc1-n1nnnc1C	-24.94
COCCCC1CCCCN1S(=O)(=O)c1cccc(C#N)c1 (centres unmarked)	-19.37
CC(NCc1ccc(OCC(N)=O)cc1)c1ccc(Cl)cc1Cl.Cl (centres unmarked)	6.586
CCn1cnnc1C1CCN(C(=O)c2ccc3c(c2)nnn3C)CC1	-27.2
CC1=NN(c2ccc(C(=O)N3CCCC(n4ccnc4)C3)cc2)CC1 (centres unmarked)	-16.16
CC(=O)N1CCN(C)CC(COCc2ccccc2)C1 (centres unmarked)	18.55
CC1(C)CCC(CC(=O)O)c2ccccc21 (centres unmarked)	8.572
Cc1cccc2cc(C(=O)N3CCN(S(=O)(=O)N(C)C)CC3)n(C)c12	-42.59
CN(Cc1cn2c(n1)CN(C(N)=O)CC2)Cc1ccco1	-48.83
CCn1ncnc1CN(CCOC)Cc1ccc(C)cc1	-11.11
O=C1CCC2(CCNCC2)CN1Cc1nncn1CCc1ccccc1	-12.69
COCCc1noc(CN2CCCCC2Cn2cc(C)cn2)n1 (centres unmarked)	-39.03
CCCn1ccc2cc(NC(=O)CC3CCCO3)ccc21 (centres unmarked)	-16.46
Cn1ccnc1CN1CC[C@@H](NS(C)(=O)=O)[C@@H]1Cc1ccccc1.O=C(O)C(F)(F)F	-19.86
N#Cc1c(N)nc2c(c1-c1c[nH]nc1C1CCCCC1)CC(N)CC2 (centres unmarked)	-172.6
O=C(c1cc(Cn2cnc3ccccc32)on1)N1CCOCC1	8.049
O=C(O)C(F)(F)F.O=c1ccc2c(n1CC1CCOCC1)CCN(Cc1ccoc1)CC2	-13.76
[H][C@]12CC[C@]([H])(CN(C(=O)N(C)C)C1)N(C(=O)CCCn1cncn1)C2	-4.598
Cc1cnc(C)c(N2CCC3(CCCN(C4CCOCC4)C3=O)C2)n1 (centres unmarked)	-15.76
Cc1nc2c(c(NC(C)C)n1)CCN(C(=O)CCO)CC2	-79.72
NC(=O)c1ccc(CNC2CCCSC2)cc1 (centres unmarked)	-38.25
COc1ccc(Br)c(C(=O)NCC2CCN(C(=O)c3ccoc3)CC2)c1	7.576
O=C(O)C(F)(F)F.[H][C@@]12CCN(C(C)C)CC[C@]1([H])[C@H](COCC1CC1)CN(C)C2=O	-30.08
COC(=O)C1CCN(C(=O)Cn2nc(C)nc2-c2ccccc2)CC1	-5.48
O=C(NCCC1CN(C2CCCC2)CCO1)c1cc(=O)[nH]c(=O)[nH]1 (centres unmarked)	-7.289
Cc1ccc(Cl)cc1NS(=O)(=O)c1cc(C(N)=O)n(C)c1	-44.28
Fc1ccc(-c2nc(CN3CCCC3Cn3cncn3)co2)cc1F (centres unmarked)	-19.23
CC(C)=CCCC(C)CN1CCC(n2cc(C(=O)NCCO)nn2)CC1 (centres unmarked)	-16.69
CCOc1ccc(C(=O)CCC(=O)N(C)Cc2cnccn2)cc1C	-49.08
Cc1ccc(CNC(c2ccccc2)c2nccn2C)cc1C (centres unmarked)	10.26
Cc1cc(=O)[nH]c(NC2CCN(S(=O)(=O)c3ccccc3)CC2)n1	3.068
O=C(O)c1ccc(S(=O)(=O)Nc2ccccc2CC(F)(F)F)c(F)c1	-13.64
CCS(=O)(=O)N1C[C@@H](c2ccccc2)[C@@]2(CCNC2=O)C1	-62.13
Cc1ccc(-c2nc(C(=O)N3CCCCC3CNS(C)(=O)=O)cs2)cc1 (centres unmarked)	-31.26
COc1c(C2CCCN2C(=O)c2ccc(C(N)=O)s2)c(C)nn1C (centres unmarked)	-23.27
CCn1ncnc1C(C)Nc1cc(C)c2ccc(SC)cc2n1 (centres unmarked)	-97.12
COc1ccc(NC(=O)C2CC2)cc1OCc1cccnc1	-25.97
COc1cc(N2CCCC(c3nccn3CCN(C)C)C2)nc(N)n1 (centres unmarked)	42.15
Fc1ccc(Cn2ncc3c2CN(c2ncccn2)C3)cc1	2.324
Cc1c(C(=O)N2CCN(c3ncccn3)CC2)n(C)c2ccc(Cl)cc12	36.3
CC(NC(=O)c1cccc[n+]1[O-])c1ccc2c(c1)CCC(=O)N2 (centres unmarked)	-65.08
O=C(c1ccc(F)cc1F)N1CC[C@H](O)[C@@H](N2CCOCC2)CC1	23.13
Clc1snnc1CN1CCOC(CNc2cccnn2)C1 (centres unmarked)	15.39
CN1CCCCCC1C(=O)NCCCn1ncc2ccccc21 (centres unmarked)	-2.054
CCSCCn1cc(-c2ncc[nH]2)nn1	-40.95
CCc1nc(CNC(C)(CO)C2CCCCC2)no1 (centres unmarked)	-16.12
c1ccc(-c2nnc(CN3CCCC(Cn4cncn4)C3)o2)cc1 (centres unmarked)	-3.064
O=C(O)C(F)(F)F.[H][C@@]12COC[C@]1(CNC(=O)c1ccsc1)CN(Cc1cnn(C)c1)C2	10.54
Cc1ccc(C)c(OCCN2CCC(N3CCNC3=O)CC2)c1	21.38
CCOc1ccc(Cl)c(C(=O)N(C)C)n1	-15.23
CN1CCN(C(=O)c2cnn(-c3ccccc3Cl)c2)CC1	14.17
COC(=O)N1CCC(Nc2ccc(Cl)c(C#N)n2)C1 (centres unmarked)	4.244
Cc1cccc(-c2nc(CN3CCOCS3(=O)=O)c(C)o2)c1	-117.9
CCOCC1c2c(cnn2C)CCN1C(=O)c1cc(C)on1.O=C(O)C(F)(F)F (centres unmarked)	-10.74
Cc1cccc(NC(=O)N2CCn3cnc(COCC4CC4)c3C2)c1	-7.393
CC(=O)NCc1nc(CCOc2ccc(Cl)cc2)no1	-81.13
Cn1cc(NC(=O)Cc2cccs2)c(=O)n(C)c1=O	-26.15
O=C(Cn1cc(Cl)cn1)NCCN1CCC(O)(c2ccc(F)cc2)CC1	6.493
CC1c2cc(F)ccc2CCN1CCCS(=O)(=O)C(C)C (centres unmarked)	3.654
NC1(C(=O)N2CCC(c3cc(-c4ccccc4Cl)n[nH]3)CC2)CCC1	-35.41
CCCSc1ncc(-c2nccn2CCC(N)=O)cn1	-42.97
CCSCC(C)NCc1nc(-c2cccnc2)no1 (centres unmarked)	-51.88
CCn1nc(C)c2nnn(CC(=O)Nc3cccc(Cl)c3)c(=O)c21	35.21
O=C1CCN(C(=O)C2(c3ccc(F)cc3)CCCC2)CCN1	-9.167
Cc1cc(C)c(CNC(=O)NCC(O)c2ccc(Cl)cc2)c(=O)[nH]1 (centres unmarked)	16.66
O=C(c1ccoc1)N1CCC2(CC1)C(=O)Nc1ccccc12	-22.55
Cc1cc(C(=O)NCC(O)CN2CCCC2=O)ccc1F (centres unmarked)	1.195
Cc1c(C(=O)NC2CCCOC2)nnn1-c1ccccc1 (centres unmarked)	-6.766
O=C(CCn1ccc2ccccc21)Nc1ccnn1CC1CCOC1 (centres unmarked)	-34.94
CCOCC1CN(C)Cc2cnn(CC3CCCC3)c21.O=C(O)C(F)(F)F.O=C(O)C(F)(F)F (centres unmarked)	6.149
Cc1cc(N2CCCC(N(C)C)C2)n2nc(C)cc2n1 (centres unmarked)	-78.28
COCC(=O)N1CCN(Cc2nnc(C(C)(C)C)o2)CC1	-23.99
CN(C)C(=O)c1cccc(Nc2cnn(C)c2)c1	-29.19
Cc1cccnc1CN(C)CC1(O)CCCN(CC2CCCCC2)C1=O (centres unmarked)	35.39
O=C(CCc1nccs1)N1CCCC(n2cccn2)C1 (centres unmarked)	-13.23
Cn1cnnc1C1CCCN(C(=O)NCc2ccc3c(c2)OCO3)C1 (centres unmarked)	-0.6348
O=C(O)C(F)(F)F.O=C(O)C(F)(F)F.O=C1N(c2cncnc2)CCC12CCCN(Cc1cccnc1)C2 (centres unmarked)	46.16
COCCN1CCc2ncc(CNc3cc(N(C)C)ncn3)n2CC1	-45.99
Cn1ccnc1CN1CCN(Cc2cc(C#N)ccc2F)CC1	-28.33
COc1ccc(N(CCC(N)=O)C(=O)CSc2ccc(F)c(F)c2)cc1	-39.99

The last 6 entries again:

{"structure": "O=C(CCc1nccs1)N1CCCC(n2cccn2)C1", "stereo": "centres unmarked", "effect": -13.23}
{"structure": "Cn1cnnc1C1CCCN(C(=O)NCc2ccc3c(c2)OCO3)C1", "stereo": "centres unmarked", "effect": -0.6348}
{"structure": "O=C(O)C(F)(F)F.O=C(O)C(F)(F)F.O=C1N(c2cncnc2)CCC12CCCN(Cc1cccnc1)C2", "stereo": "centres unmarked", "effect": 46.16}
{"structure": "COCCN1CCc2ncc(CNc3cc(N(C)C)ncn3)n2CC1", "effect": -45.99}
{"structure": "Cn1ccnc1CN1CCN(Cc2cc(C#N)ccc2F)CC1", "effect": -28.33}
{"structure": "COc1ccc(N(CCC(N)=O)C(=O)CSc2ccc(F)c(F)c2)cc1", "effect": -39.99}

Source: ChEMBL document CHEMBL3988442, “University of Dundee, Small-Polar-MMV Screening Library” (2021).